Measurements: PubChem BioAssay AID1347075 (National Center for Advancing Translational Sciences (NCATS), 2019)
In all, about 400,000 compounds went through this assay and about 5,500 (1.4%) were called active. Inconclusive results, whose numbers are uncertain, are shown with a selection of clear calls. The call rests on the fitted dose curve; in most records, active means well fitted cell-killing curve with a large enough effect; inconclusive means small, poorly fitted or top-dose-only effect, or effect the other way; inactive means flat fitted curve, though single readings scatter. Potencies of inconclusive entries are doubtful fits and often do not repeat.

Assay: qHTS assay for MDR1-selective chemotherapeutics: Primary screen using the parental adenocarcinoma cell KB-3-1; further: nearly all actives have a fitted effect of over 60% in size
Conditions: KB-3-1 viability, CellTiter-Glo ATP luminescence, 72 h; activity change, negative = cytotoxic: at 46.1 µM (top of the series)
Procedure, shortened: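 Parental KB-3-1 viability, qHTS format: 72 h compound exposure, 37 °C; CellTiter-Glo; media-only wells and DMSO plates as controls; concentration-effect fits on corrected data.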
On the % scale 0 is the no-effect control and ±100 the full control effect; potency means the concentration at half of the fitted maximal effect.

Question: Which Potency does the source give for `O=S(=O)(c1ccc2ccccc2c1)N1CCN(c2nc(-c3ccccc3)nc3ccccc23)CC1` here?
Answer: The Potency was inconclusive: 13 µM [rising, partial curve, poor fit].

Question: With `COc1ccc2cc(CN(Cc3ccco3)C(=S)NCC3CCCO3)c(=O)[nH]c2c1` (configuration not stated) as the molecule, how does the Potency read?
Answer: Its Potency is inconclusive: 29.1 µM [cytotoxic, single point].

Question: Which “activity change, negative = cytotoxic” value does the source give for `CC(=O)c1c(C)[nH]c(C(=O)OCC(=O)N2CCN(S(=O)(=O)c3ccc(C)cc3)CC2)c1C` here?
Answer: The value was inactive: -12.7%.

Question: With `Cc1cc(Nc2ccccc2)nc(N)n1` as the molecule, how does the Potency read?
Answer: The Potency was inconclusive: 29.1 µM [cytotoxic, single point].

Question: For `CCOC(=O)c1sc(NC(=O)C2CCC2)cc1C`, which “activity change, negative = cytotoxic” value is on record?
Answer: Its value is inactive: -1.37%.

Question: With `N#Cc1cc([N+](=O)[O-])ccc1Oc1cccc(/C=N/NC(=O)c2ccc(Cl)cc2)c1` as the molecule, how does the Potency read?
Answer: The Potency was inconclusive: 29.1 µM [cytotoxic, single point].

Question: For `Cc1cc(C(=O)OCC(=O)NNC(=O)c2cccs2)ccc1[N+](=O)[O-]`, which “activity change, negative = cytotoxic” value is on record?
Answer: The value was inactive: -2.84%.

Question: With `COc1ccc(-c2noc(Cn3cc(S(=O)(=O)N4CCCC4)ccc3=O)n2)cc1` as the molecule, how does the “activity change, negative = cytotoxic” value read?
Answer: Its value is inactive: 6.02%.

Question: With `CCCNC(=O)NNC(=O)c1ccc(F)cc1` as the molecule, how does the “activity change, negative = cytotoxic” value read?
Answer: Its value is inactive: 6.83%.

Question: Which Potency does the source give for `CCOc1cc(CNS(=O)(=O)c2ccc3c(c2)CC(=O)N3C)cc(OCC)c1OCC` here?
Answer: Its Potency is “inactive”.

Question: Which “activity change, negative = cytotoxic” value does the source give for `COc1ccccc1-c1cccc2nccn12` here?
Answer: Its value is inactive: 0%.

Question: Which Potency does the source give for `O=C(Nc1nc2nc(-c3ccccc3)cc(-c3ccccc3)n2n1)c1ccco1` here?
Answer: Its Potency is inconclusive: 29.1 µM [cytotoxic, single point].

Question: With `CC(=O)Nc1ccc(S(=O)(=O)N2CCC(c3ccncc3)CC2)cc1` as the molecule, how does the Potency read?
Answer: Its Potency is inconclusive: 32.6 µM [cytotoxic, single point].

Question: Which “activity change, negative = cytotoxic” value does the source give for `COC1C=CC=C(C)C(=O)NC2=CC(=O)C(N)=C(CC(C)CC(OC)C(O)C(C)C=C(C)C1OC(N)=O)C2=O` (configuration not stated) here?
Answer: The value was inactive: -21.2%.

Question: With `COC(=O)[C@@]12CCCN1[C@H](c1ccc(-c3ccc(OC)cc3)cc1)[C@@H]1C(=O)N(C)C(=O)[C@@H]12` as the molecule, how does the Potency read?
Answer: The Potency was inconclusive: 29.1 µM [cytotoxic, single point].

Question: With `COc1cccc2cc(C(=O)NC3CC4CCC3C4)oc12` (configuration not stated) as the molecule, how does the Potency read?
Answer: The Potency was inconclusive: 25.9 µM [cytotoxic, single point].

Question: With `COc1ccc(C(=O)NCCn2cc(SCc3cccc(F)c3)c3ccccc32)cc1OC` as the molecule, how does the Potency read?
Answer: The Potency was inconclusive: 29.1 µM [cytotoxic, single point].

Question: With `CN(C)c1cc(-c2ccc(Cl)cc2Cl)oc(=O)c1Cl` as the molecule, how does the Potency read?
Answer: The Potency was inconclusive: 29.1 µM [cytotoxic, single point].

Question: With `CC1(C)C(=O)NC(=O)N1Cc1ccccc1` as the molecule, how does the “activity change, negative = cytotoxic” value read?
Answer: Its value is inactive: 0.574%.

Question: Which Potency does the source give for `O=[N+]([O-])c1ccc2[nH]c(O)c(N=NC(=S)NCC3CCCO3)c2c1` (configuration not stated) here?
Answer: The Potency was inconclusive: 29.1 µM [rising, single point].

Question: Which “activity change, negative = cytotoxic” value does the source give for `COc1cc(S(=O)(=O)NC2CCCCC2)ccc1F` here?
Answer: The value was inactive: -1.61%.

Question: For `OC(CN1c2ccccc2Sc2ccccc21)Cn1nnc2ccccc21` (configuration not stated), which Potency is on record?
Answer: Its Potency is inconclusive: 29.1 µM [cytotoxic, single point].

Question: Which Potency does the source give for `CCOC(=O)c1c(C)n(-c2ccccc2)c2ccc(O)cc12` here?
Answer: The Potency was inconclusive: 29.1 µM [cytotoxic, single point].

Question: With `O=C1CCC[C@@H]2[C@H](Cc3ccccc3)[C@@H](O)C[C@@H]3CCN1[C@@H]32` as the molecule, how does the Potency read?
Answer: Its Potency is inconclusive: 32.6 µM [cytotoxic, partial curve, poor fit].

Question: Which Potency does the source give for `Cc1ccc(C(=O)Nc2ncc(Cc3ccc(F)cc3)s2)o1` here?
Answer: The Potency was active: 5.8 µM.

Question: For `O=S(=O)(Nc1ccc(-c2ccc(N3CCCCC3)nn2)cc1)c1ccc(OC(F)(F)F)cc1`, which “activity change, negative = cytotoxic” value is on record?
Answer: Its value is inactive: -9.4%.

Question: For `Cc1ccc(S(=O)(=O)/N=C2/NC(=O)/C(=C/c3ccc(Br)o3)S2)cc1`, which Potency is on record?
Answer: Its Potency is inconclusive: 20.6 µM [cytotoxic, single point].

Question: Which Potency does the source give for `Cc1csc(NC(=O)Cc2nn(C)c(=O)c3ccccc23)n1` here?
Answer: Its Potency is inconclusive: 7.31 µM [cytotoxic, partial curve].

Question: Which Potency does the source give for `COc1cc2ccccc2cc1C(=O)OCC(=O)N(CC(C)C)c1c(N)n(Cc2ccccc2)c(=O)[nH]c1=O` here?
Answer: The Potency was inconclusive: 29.1 µM [rising, single point].

Question: For `CCCNC(=O)CCNC(=O)c1ccc(C(C)(C)C)cc1`, which Potency is on record?
Answer: Its Potency is inconclusive: 29.1 µM [cytotoxic, single point].

Question: With `CSc1ccccc1C(=O)OCC(=O)Nc1cccnc1Cl` as the molecule, how does the “activity change, negative = cytotoxic” value read?
Answer: The value was inactive: -6.96%.

Question: Which Potency does the source give for `CN(CC(=O)Nc1cccc(S(=O)(=O)N2CCCC2)c1)CC(=O)Nc1ccc(Cl)c(C(F)(F)F)c1` here?
Answer: Its Potency is inconclusive: 14.6 µM [cytotoxic, partial curve].

Question: Which “activity change, negative = cytotoxic” value does the source give for `Nc1ccc2c(c1)[nH]c(=O)c1ccccc12` here?
Answer: The value was inactive: 34.3%.

Question: Which “activity change, negative = cytotoxic” value does the source give for `COc1ccc(CCN2CC(C(=O)N(C)Cc3ccccn3)CCC2=O)cc1` (configuration not stated) here?
Answer: The value was inactive: 3.02%.

Question: With `CC(C)c1ccccc1NC(=O)CNCCOc1ccccc1F` as the molecule, how does the “activity change, negative = cytotoxic” value read?
Answer: The value was inactive: 7.24%.

Question: With `COCCNc1nc(-c2ccccc2CO)c2sc(-c3ccccc3)cc2n1` as the molecule, how does the Potency read?
Answer: The Potency was active: 5.8 µM.

Question: With `Cc1ccc(S(=O)(=O)N2CCCCC2)cc1C(=O)NC1CCCCC1` as the molecule, how does the Potency read?
Answer: The Potency was inconclusive: 13 µM [cytotoxic, partial curve, poor fit].

Question: With `COc1ccc(S(=O)(=O)n2nc(C)c(S(=O)(=O)N3CCCCC3)c2C)cc1` as the molecule, how does the “activity change, negative = cytotoxic” value read?
Answer: Its value is inactive: -10.1%.

Question: With `CC1CCN(C(=O)c2ccc3c(c2)N(Cc2ccccc2F)C(=O)c2ccccc2S3(=O)=O)CC1` as the molecule, how does the “activity change, negative = cytotoxic” value read?
Answer: The value was inactive: -11.6%.

Question: For `Cc1cccc(NC(=O)c2ccc([N+](=O)[O-])o2)c1`, which Potency is on record?
Answer: Its Potency is active: 9.2 µM.

Question: With `C=C(C)Cn1c(SCC(=O)Nc2ccccc2C)nc2sc3c(c2c1=O)CCCC3` as the molecule, how does the “activity change, negative = cytotoxic” value read?
Answer: The value was inactive: 1.24%.

Question: For `COc1ccc(-c2ccnc(-c3ccc(OCCCF)cc3)n2)cc1`, which Potency is on record?
Answer: Its Potency is inconclusive: 29.1 µM [cytotoxic, single point].

Question: For `Cc1ccc(C(=O)Nc2ccc3c(c2)CCC3)cc1`, which Potency is on record?
Answer: Its Potency is inconclusive: 32.6 µM [cytotoxic, single point].

Question: With `COc1ccccc1N1CCN(C(=O)c2cc3c(=O)n(C)c4ccccc4c3s2)CC1` as the molecule, how does the “activity change, negative = cytotoxic” value read?
Answer: Its value is inactive: -1.49%.

Question: Which Potency does the source give for `O=C(Nc1cc2c(cc1Cl)-c1ccc([N+](=O)[O-])cc1C2=NO)C(F)(F)F` here?
Answer: Its Potency is inconclusive: 29.1 µM [cytotoxic, single point].

Question: Which activity change, negative = cytotoxic does the source give for `COc1ccc(-c2nc(SCC(=O)NC3CCCC3)c(-c3ccc(OC)cc3)[nH]2)cc1` here?
Answer: Its activity change, negative = cytotoxic is inconclusive: -39.6%.

Question: For `COc1ccc(/C=N/NC(=O)c2ccc(Cl)cc2Cl)cc1COC(C)=O`, which Potency is on record?
Answer: Its Potency is inconclusive: 20.6 µM [cytotoxic, single point].
